This experiment concerns the target T1, Flag-GBP1 WT (THP-1ΔGBP1+Tet-Flag-GBP1 cells) (human) (UniProt P32455).
T1 sequence: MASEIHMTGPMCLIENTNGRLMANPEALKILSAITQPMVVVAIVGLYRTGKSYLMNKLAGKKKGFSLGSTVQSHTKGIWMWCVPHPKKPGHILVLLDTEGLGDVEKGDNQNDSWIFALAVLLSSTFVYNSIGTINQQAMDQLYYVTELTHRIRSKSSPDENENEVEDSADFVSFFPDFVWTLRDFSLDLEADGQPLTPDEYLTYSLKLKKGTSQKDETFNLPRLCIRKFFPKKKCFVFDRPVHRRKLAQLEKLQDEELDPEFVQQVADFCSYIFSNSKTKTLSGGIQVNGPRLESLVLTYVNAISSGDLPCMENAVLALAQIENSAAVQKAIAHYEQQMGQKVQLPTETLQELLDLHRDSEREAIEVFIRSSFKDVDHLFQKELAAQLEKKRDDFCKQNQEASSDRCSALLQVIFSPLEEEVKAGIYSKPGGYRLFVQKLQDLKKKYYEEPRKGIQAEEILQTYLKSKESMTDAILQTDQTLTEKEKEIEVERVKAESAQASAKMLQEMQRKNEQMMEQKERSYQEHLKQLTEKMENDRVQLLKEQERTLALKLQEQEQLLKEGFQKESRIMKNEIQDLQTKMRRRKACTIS
In words: affinity purification with mass spectrometry; Flag-immunoprecipitation from IFNγ (CTRL) or IFNγ+Dox-treated THP-1ΔGBP1+Flag-GBP1 cells, uninfected or infected with Tg WT; lysis buffer 1% Triton X-100, 20 mM Tris-HCl pH 8.0, 130 mM NaCl; LFQ.

By UniProt entry, the sequences of proteins in these tests, tags left out. Residues count along the entry.
UniProt F2YGR7, residues 25-549: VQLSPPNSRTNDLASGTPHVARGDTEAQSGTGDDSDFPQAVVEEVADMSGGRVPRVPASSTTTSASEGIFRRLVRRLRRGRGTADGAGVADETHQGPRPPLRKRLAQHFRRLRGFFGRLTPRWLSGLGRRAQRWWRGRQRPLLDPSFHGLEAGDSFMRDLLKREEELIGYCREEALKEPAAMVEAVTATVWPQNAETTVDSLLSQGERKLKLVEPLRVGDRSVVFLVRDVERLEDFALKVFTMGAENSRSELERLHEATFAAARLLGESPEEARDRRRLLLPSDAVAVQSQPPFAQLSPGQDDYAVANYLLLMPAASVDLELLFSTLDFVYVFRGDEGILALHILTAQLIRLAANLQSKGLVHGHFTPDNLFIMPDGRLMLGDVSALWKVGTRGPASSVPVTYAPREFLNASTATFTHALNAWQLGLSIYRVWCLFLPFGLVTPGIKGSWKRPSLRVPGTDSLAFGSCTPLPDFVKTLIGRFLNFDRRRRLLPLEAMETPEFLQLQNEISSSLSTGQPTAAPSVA
UniProt P31946: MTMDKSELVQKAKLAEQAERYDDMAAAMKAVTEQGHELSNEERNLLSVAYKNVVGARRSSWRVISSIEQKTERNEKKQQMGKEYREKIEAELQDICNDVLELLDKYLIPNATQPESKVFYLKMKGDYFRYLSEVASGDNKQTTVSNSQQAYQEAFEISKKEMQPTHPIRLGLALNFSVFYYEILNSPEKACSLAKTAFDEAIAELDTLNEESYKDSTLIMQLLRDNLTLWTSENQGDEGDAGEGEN
UniProt P63104: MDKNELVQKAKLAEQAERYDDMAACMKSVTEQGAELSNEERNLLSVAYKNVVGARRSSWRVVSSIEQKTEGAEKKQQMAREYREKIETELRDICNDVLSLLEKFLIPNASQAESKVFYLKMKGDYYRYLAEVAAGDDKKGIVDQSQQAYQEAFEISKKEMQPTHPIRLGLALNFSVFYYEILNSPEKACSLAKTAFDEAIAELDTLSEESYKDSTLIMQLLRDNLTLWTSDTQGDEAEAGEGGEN

No constants are given. Whether binding was seen depends on the method and setting. Binding seen in cells or lysates may run through a third protein. A yes stands for co-enrichment or nearness to the bait. Other partners may have been found. Where a sequence is shown, tags or fusion partners need not be part of it.

Take “parasite-derived TgROP5 (from UniProt F2YGR7 25-549)”: the binding entry is “binds”.

“14-3-3β (endogenous, THP-1 cells) (from UniProt P31946 1-246)”: the binding entry is on record as “binds”. Then “14-3-3ζ (endogenous, THP-1 cells) (from UniProt P63104 1-245)”, with “binds”.

The values above are taken from PMC7615196, “PIM1 controls GBP1 activity to limit self-damage and to guard against pathogen infection” (Science (New York, N.Y.), 2023).
